This is one part of the list.

Among the test systems are Stathmin (human); Suprabasin (human); Synaptophysin (human); Syndecan-1 (human); Synembryn-A (human); Syntaxin-10 (human); Syntaxin-1B (human); TAC1 (human).
Test in all cases: protein microarray (ProtoArray v5.0), streptavidin-Alexa Fluor 647
Common to all, as to settings: 3'-biotin; 20 mM Tris (pH 7.5), 5 mM MgCl2, 100 mM KCl, 0.1% Tween-20, A/T-rich and random oligonucleotide blockers; temperature not stated; high values mean tight binding

Experiment [1] concerns Spermatogenesis- and oogenesis-specific basic helix-loop-helix-containing protein 2 (human).
Experiment [2] concerns Spermatogenesis-associated protein 7 (human).
In experiment [3] the test system is Spermine synthase (human).
In experiment [4] the test system is StAR-related lipid transfer protein 4 (human).
Experiment [5] has as its system StAR-related lipid transfer protein 5 (human).
Experiment [6] deals with Sterol-4-alpha-carboxylate 3-dehydrogenase, decarboxylating (human).
Experiment [7] has as its system Sulfate anion transporter 1 (human).
Experiment [8] has as its system Sulfotransferase 4A1 (human).
For experiment [9], the system named is Sulfotransferase family cytosolic 1B member 1 (human).
Experiment [10] concerns Synaptonemal complex protein 2-like (human).
The subject of experiment [11] is T-complex protein 11-like protein 2 (human).
Experiment [12] has as its system TAF5-like RNA polymerase II p300/CBP-associated factor-associated factor 65 kDa subunit 5L (human).

With “GGGAGGCTGAGGCAGG [G4-1 biotinylated (PQS2)]”, the binding signal in experiment [1] was -0.31 z-score; in experiment [2] it was -0.373 z-score; in experiment [3], -0.345 z-score; in experiment [4] it was -0.338 z-score; in experiment [5], -0.322 z-score; in the experiment with Stathmin (human), -0.344 z-score. The binding signal in experiment [6] was -0.328 z-score; in experiment [7], -0.275 z-score; in experiment [8], -0.327 z-score; in experiment [9], -0.338 z-score; in the experiment on Suprabasin (human) it was -0.317 z-score; in experiment [10], -0.294 z-score. For the same sequence, the binding signal with Synaptophysin (human) is -0.318 z-score; in the experiment with Syndecan-1 (human), -0.334 z-score; with Synembryn-A (human), -0.36 z-score; with Syntaxin-10 (human), -0.304 z-score; in the experiment on Syntaxin-1B (human), -0.34 z-score; in experiment [11] it was -0.365 z-score. Further, the values for the binding signal (in the experiment with TAC1 (human); in experiment [12]) were -0.267 z-score and -0.314 z-score, respectively.
